Measured values: paper PMC9700832
Results are given in words; binding and its absence hold for the method and conditions named. A result given as binding can be weak or reduced; the word gives no strength.

Target: T1, B. thuringiensis serovar israelensis LexA (Bacillus thuringiensis serovar israelensis) (UniProt A0RH75)
T1 sequence: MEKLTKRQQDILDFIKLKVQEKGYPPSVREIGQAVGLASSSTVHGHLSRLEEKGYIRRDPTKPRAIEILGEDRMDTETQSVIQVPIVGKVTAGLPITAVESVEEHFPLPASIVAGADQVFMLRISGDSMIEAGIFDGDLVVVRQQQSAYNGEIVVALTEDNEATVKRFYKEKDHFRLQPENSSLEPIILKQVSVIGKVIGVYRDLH
Experiment: SPR; each LexA immobilised on a separate CM5 chip (1200 to 1300 RU); analytes 6-1458 nM in 3-fold dilutions, 180 s at 30 uL/min, 25 °C; 20 mM HEPES pH 7.4, 150 mM NaCl, 3 mM EDTA, 0.1 mg/mL BSA, 0.005% P20; steady-state affinity fit; apparent KD, mean of two titrations; both purified

Substance	binding
gp7 protein of GIL01 phage (bacteriophage GIL01)	binds
tectiviral gp7 homolog from B. cereus AND1284 phage Sato	binds
